# Construct, isoform or probe ends are uncertain for at least one entry. Protein sequences can lack the tags named with them.
# Biological target: T1, ELAV (rELAV) (UniProt P16914)
# T1 sequence (looked up, limits assumed): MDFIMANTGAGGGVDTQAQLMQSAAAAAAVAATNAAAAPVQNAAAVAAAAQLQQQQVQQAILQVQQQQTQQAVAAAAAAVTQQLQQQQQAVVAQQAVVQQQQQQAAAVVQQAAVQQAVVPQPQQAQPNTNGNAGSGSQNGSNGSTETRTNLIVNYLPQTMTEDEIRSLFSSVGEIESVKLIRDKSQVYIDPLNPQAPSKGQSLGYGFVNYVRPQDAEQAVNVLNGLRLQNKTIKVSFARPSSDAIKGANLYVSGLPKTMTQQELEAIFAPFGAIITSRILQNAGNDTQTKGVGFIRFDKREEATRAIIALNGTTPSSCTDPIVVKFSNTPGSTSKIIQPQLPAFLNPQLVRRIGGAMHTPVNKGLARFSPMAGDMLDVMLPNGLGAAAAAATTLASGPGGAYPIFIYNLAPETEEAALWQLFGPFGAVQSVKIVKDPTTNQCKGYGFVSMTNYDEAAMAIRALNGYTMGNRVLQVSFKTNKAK
# Assay: EMSA
# Settings: EMSA: 50 mM Tris-HCl pH 7.5, 60 mM NaCl, 25 ug/ml tRNA, 0.5 mM DTT, 50 ug/ml acetylated BSA, 20 min; 4-6% native gel in 0.5x TBE at 4 C; recombinant protein; protein details: GST tag, cleaved off with PreScission protease
sequence,measurement,value
GAAGCUAUUAUACAUUUUAUCUUAUAAUUUUAUACUUUAUGUU [M7H],Kd,580 nM

# Reference: article PMC11551757, “Phylogenomic instructed target analysis reveals ELAV complex binding to multiple optimally spaced U-rich motifs”
